PubChem BioAssay AID504774 – Drosophila RNAi Screening Center | 2011

Aim: 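Knock-downs that shift viability of MMS-exposed cells relative to untreated ones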 (primary screen)
Cells: Drosophila Kc167 cells
Knock-down reagent: long dsRNA against Drosophila genes, about 0.25 µg dsRNA per well
Duration: about 6 days: 3 days knock-down, then 3 days with or without MMS
Conditions: methyl methanesulphonate 0.004% (w/v) for 3 days after knock-down
Measured: 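Viability in wells given MMS, read as ATP luminescence, normalised by quantiles plate by plate and averaged across replicates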
Direction: mean viability with MMS: higher = more surviving cells after MMS
The screen tested about 23,000 reagents; below is a random part of those with a known target gene and a result. 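Values are quantile-normalised luminescence on an arbitrary scale; higher means more cells surviving MMS.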 Reagents against one gene are numbered here. A plus sign joins genes that one reagent is predicted to hit. Further read-outs or replicates are left out here. No sequences are given here.

no.	gene	reagent	mean viability with MMS
1	Paris	1	3.15e6
2	CG14820	1	3.58e6
3	XNP	1	3.38e6
4	CG13074	1	3.75e6
5	CG17065	1	3.75e6
6	CG3604	1	3.47e6
7	CG12782	1	3.47e6
8	CG34203	1	3.58e6
9	CG15643	1	3.69e6
10	fok	1	3.42e6
11	Cul6	1	3.46e6
12	mAChR-C	1	3.55e6
13	CG6686	1	3.16e6
14	HPS1	1	3.34e6
15	CG30054	1	3.53e6
16	Veneno	1	3.72e6
17	Upf1	1	3.52e6
18	Top3alpha	1	3.54e6
19	CG1529	1	3.47e6
20	CG11601	1	3.47e6
21	CG12081	1	3.50e6
22	CG8093	1	3.64e6
23	Ubc2	1	3.55e6
24	Ubc2	2	3.58e6
25	CG14277	1	3.85e6
26	CG33003	1	3.69e6
27	boca	1	3.49e6
28	CG14629	1	3.59e6
29	Mesh1	1	3.49e6
30	Rh50	1	3.55e6
31	CG7755	1	3.73e6
32	CG8860	1	3.57e6
33	betaTub56D	1	3.31e6
34	RpL17	1	2.58e6
35	Gnpat	1	3.57e6
36	Nin	1	3.52e6
37	CG11498	1	3.28e6
38	GstE6	1	3.70e6
39	CG3679	1	3.55e6
40	AspRS-m	1	3.66e6
41	Agps	1	3.36e6
42	Rpn6	1	2.77e6
43	PCNA2	1	3.55e6
44	Lis-1	1	3.52e6
45	CG11710	1	3.56e6
46	mRpL50	1	3.62e6
47	CG4709	1	3.60e6
48	RpL40	1	2.97e6
49	Tdc2	1	3.31e6
50	CG32109	1	3.67e6
51	CG30096	1	3.32e6
52	CG31495	1	3.52e6
53	CG8679	1	3.53e6
54	Ance-3	1	3.76e6
55	Ance-3	2	3.52e6
56	CG42818 + Ca-Ma2d	1	3.55e6
57	CG14194	1	3.52e6
58	Khc-73	1	3.72e6
59	Polr2B	1	2.94e6
60	sdk	1	3.50e6
61	CG14126 (retired record)	1	3.74e6
62	CG2852	1	3.78e6
63	CG33259	1	3.51e6
64	RpS25	1	3.18e6
65	CG18586	1	3.42e6
66	CG15515	1	3.58e6
67	CG13868	1	3.45e6
68	Jhbp12	1	3.49e6
69	wupA	1	3.65e6
70	wupA	2	3.66e6
71	CG14537	1	3.58e6
72	gudu	1	3.73e6
73	mahe	1	3.52e6
74	CG3600 (retired record)	1	3.45e6
75	CG7506	1	3.54e6
76	Vav	1	3.75e6
77	Agxt	1	3.67e6
78	pcx	1	3.44e6
79	pcx	2	3.39e6
80	pcx	3	3.41e6
81	pcx	4	3.45e6
82	pcx	5	3.39e6
83	pcx	6	3.56e6
84	CG8788	1	3.55e6
85	Eph	1	3.48e6
86	CG4734	1	3.66e6
87	CG4734	2	3.58e6

14 entries already listed, ordered by “mean viability with MMS”, ascending:
gene	reagent	mean viability with MMS
Polr2B	1	2.94e6
CG30096	1	3.32e6
sdk	1	3.50e6
CG33259	1	3.51e6
CG31495	1	3.52e6
Ance-3	2	3.52e6
CG14194	1	3.52e6
CG8679	1	3.53e6
CG42818 + Ca-Ma2d	1	3.55e6
CG32109	1	3.67e6
Khc-73	1	3.72e6
CG14126 (retired record)	1	3.74e6
Ance-3	1	3.76e6
CG2852	1	3.78e6
